Source: patent US10648979B2, “Molecular probes for detecting gram-negative bacteria in vitro and in vivo” (priority 2014, dated 2020)
At least one peptide structure holds a part that was inferred or is arguable (an end, a ring closure or a residue). For at least one compound, name, drawing or mass did not settle the structure.

Experiments:
[1] = Emission spectra of probes in PBS or DMSO (hydrophobic environment); assay type: physicochemical
Experimental: A) Emission spectra shown for NBD-UBIdend (5 μM) and NBD-UBINle (15 μM) in the presence of PBS or DMSO (hydrophobic environment) when excited at 488 nm wavelength. B) Emission spectra shown for NBD-PMX (10 μM) in the presence of PBS or DMSO (hydrophobic environment) when excited at 488 nm wavelength. The fluorescence of both probes greatly increases under hydrophobic conditions as would be present upon binding to the bacterial membrane target.
To confirm the fluorescent reporter NBD retains its characteristics when coupled with our peptide moieties we measured the fluorescence of the compounds in conditions to mimic a hydrophobic environment (DMSO).

[2] = tested on: human neutrophils; test: Labelling of isolated human neutrophils (confocal); assay type: cell-based
Experimental: (§1) All compounds have undergone biological assessment.
(§2) Bacteria were prepared and counterstained with Syto 82 nucleic acid stain (Invitrogen, Calif., USA) in a shaking heat block at 37° C. and 350 rpm for 20 minutes. They were co-incubated with the probe at required concentration in a sealed POC mini chamber, or 8 well confocal chamber. When required the glass coverslip for the POC chamber was coated in fibronectin (for neutrophil experiments) or poly-d-lysine (for bacteria and cell lines) and incubated with cells with one hour at 37° C. to allow adherence prior to bacterial innoculation. Analysis was with ImageJ. Briefly, the Syto channel was automatically thresholded (Huang) and an ROI generated from this. The mean fluorescence intensity on the probe channel within this ROI was quantified. Data presented represents the mean of three separate fields of view.

[3] = tested on: A549 cells; test: Labelling of A549 cells (confocal); assay type: cell-based, human
Experimental: as §1
A549 cells were grown in Dulbecco's modified Eagle's medium (DMEM) supplemented with 10% fetal bovine serum (FBS), 2 mM L-glutamine, 100 units/mL penicillin G and 100 μg/mL streptomycin to 80% confluence. Cells were dispersed with Trypsin-EDTA and seeded onto glass coverslips or 8 well confocal imaging chambers and grown to confluence in the presence of DMEM.
as §2

[4] = tested on: bacteria instilled into ovine lung segments; test: Ex vivo ovine lung model of bacterial infection, in situ labelling imaged by FCFM
Experimental: FIG. 9: Ex vivo model of bacterial infection. A) Ovine lungs were harvested, ventilated and placed in a neonatal incubator with ambient temperature of 37° C. Pulmonary segments were instilled with PBS (control) or bacteria via bronchoscopy. Probes were then instilled and segments imaged with fibered confocal fluorescence microscopy (FCFM) using 488 nm Laser Scanning Unit (LSU). […] Bacteria (MSSA) instilled into segments of ovine lung and lavaged at 1, 3 and 5 hours (n=3), plated for CFU/ml and counted following 16 hour incubation.
NBD-UBIdend and NBD-PMX were assessed for in situ specificity and sensitivity in an ex vivo ovine model of bacterial infection (FIG. 9). […] We observed identical patterns with Calcein-labelled bacteria and Green Fluorescent Protein-expressing S. aureus which were instilled into the lung and imaged with FCFM (FIG. 10A). This pattern is reproduced identically by instilling bacteria “pre-labelled” with NBD-UBIdend and NBD-PMX into lung segments.
Following this thorough characterisation of the model and positive controls, we instilled PBS or VAP-relevant bacteria into distinct segments within the ex vivo lung model, followed by the microdosed delivery of the probes.
as §1
Bacteria were grown to midlog phase in 400 ml TSB, pelleted by centrifugation and resuspended in 2 ml PBS. This was mixed with 18 ml molten tryptic-soy agar (50° C.) and injected rapidly into vortexing mineral oil +0.01% Span 80, pre-warmed to 50° C. This was then rapidly cooled to 4° C. whilst continuing to vortex to allow the beads to set. Bacterial agar beads were pelleted by centrifugation (20 minutes, 3000 g) and washed in 0.5% sodium deoxycholate (SDC) in PBS (20 minutes, 3000 g), followed by 0.25% SDC (20 minutes, 3000 g) in PBS, washed in PBS (10 minutes, 3000 g) and 3×PBS (5 minutes, 200 g). Beads were resuspended at 50% v/v in PBS for instillation.
From a cohort of surplus stock ewes which were destined for cull, one ewe was identified and terminally euthanized with an overdose of anaesthetic. […]

[5] = tested on: MSSA; test: Bacterial labelling in the presence or absence of ovine lavage (confocal); assay type: cell-based, Staphylococcus aureus; details: NBD-UBINle 15 μM, NBD-UBIdend 5 μM

CCCC[C@H](NC(=O)[C@H](CCCNC(=N)N)NC(=O)[C@H](CCCNC(=N)N)NC(=O)[C@H](CCCCN)NC(=O)[C@H](C)NC(=O)[C@H](CCCNC(=N)N)NC(=O)CNC(=O)[C@@H](NC(=O)COCCOCCNc1ccc([N+](=O)[O-])c2nonc12)[C@@H](C)O)C(=O)N[C@@H](CCC(N)=O)C(=O)N[C@@H](Cc1ccc(O)cc1)C(=O)N[C@@H](CC(N)=O)C(=O)N[C@@H](CCCNC(=N)N)C(=O)N[C@@H](CCCNC(=N)N)C(=O)NCCOCCOCC(=O)NCCCOCC(COCCCNC(=O)COCCOCCNC(=O)[C@H](CCCNC(=N)N)NC(=O)[C@H](CCCNC(=N)N)NC(=O)[C@H](CC(N)=O)NC(=O)[C@H](Cc1ccc(O)cc1)NC(=O)[C@H](CCC(N)=O)NC(=O)[C@H](CCCC)NC(=O)[C@H](CCCNC(=N)N)NC(=O)[C@H](CCCNC(=N)N)NC(=O)[C@H](CCCCN)NC(=O)[C@H](C)NC(=O)[C@H](CCCNC(=N)N)NC(=O)CNC(=O)[C@@H](NC(=O)COCCOCCNc1ccc([N+](=O)[O-])c2nonc12)[C@@H](C)O)(COCCCNC(=O)COCCOCCNC(=O)[C@H](CCCNC(=N)N)NC(=O)[C@H](CCCNC(=N)N)NC(=O)[C@H](CC(N)=O)NC(=O)[C@H](Cc1ccc(O)cc1)NC(=O)[C@H](CCC(N)=O)NC(=O)[C@H](CCCC)NC(=O)[C@H](CCCNC(=N)N)NC(=O)[C@H](CCCNC(=N)N)NC(=O)[C@H](CCCCN)NC(=O)[C@H](C)NC(=O)[C@H](CCCNC(=N)N)NC(=O)CNC(=O)[C@@H](NC(=O)COCCOCCNc1ccc([N+](=O)[O-])c2nonc12)[C@@H](C)O)NC(N)=O (stereo partly drawn) [NBD-UBIdend]
fluorescence increase compared with linear probe ([1]; eqimolar concentrations of NBD): the same fluorescence increase as linear
fluorescence in DMSO compared to PBS ([1]; excited at 488 nm, NBD-UBIdend 5 μM, NBD-UBINle 15 μM, NBD-PMX 10 μM): significant increase in fluorescence
labelling of human neutrophils [2]: did not label human neutrophils or A549 cells
labelling of A549 cells [3]: did not label human neutrophils or A549 cells
detection of bacteria-coated agarose beads in situ [4]: when beads are coated with bacteria a signal is seen
in situ labelling of bacteria in segments instilled with bacteria [4]: the same signal as seen with the ‘positive controls’
signal in PBS control segments [4]: minimal/no signal with PBS control
fluorescence in ovine lavage versus absence of lavage [5]: reduced fluorescence in ovine lavage
fluorescence intensity in ovine lavage compared with linear compound [5]: retains higher fluorescence intensity
